Some results were stated once for a whole list of compounds, not compound by compound.
Key:
[1] = test system: Botrytis cinerea; assay: Preventative fungicidal control of Botrytis cinerea on leaves of green pepper (green house); type: in vivo; settings: green pepper sprayed 1 day before inoculation, assessed after 5 days, untreated plants 90% infected
[2] = test system: Fusarium culmorum; assay: Activity against Fusarium culmorum in the microtiterplate test; type: cell-based; settings: 31 ppm; microtiter plate
[3] = test system: Alternaria solani; assay: Activity against Alternaria solani in the microtiterplate test; type: cell-based; settings: 31 ppm; microtiter plate
[4] = test system: Septoria tritici; assay: Activity against the leaf blotch on wheat caused by Septoria tritici in the microtiterplate test; type: cell-based; settings: 31 ppm; microtiter plate
[5] = test system: Sclerotinia sclerotiorum; assay: Preventative fungicidal control of white mold on soybeans caused by Sclerotinia sclerotiorum (green house); type: in vivo; settings: 125 ppm; soybeans sprayed 1 day before inoculation; assessed after 6 days; untreated plants 90% infected

Row | SMILES | growth of the pathogen (% diseased leaf area) ([1]; 250 ppm) | growth of the pathogen (relative to compound-free control = 100%) [2] | growth of the pathogen (relative to compound-free control = 100%) [3] | growth of the pathogen (relative to compound-free control = 100%) [4] | growth of the pathogen (% diseased leaf area) ([1]; 125 ppm) | growth of the pathogen (% diseased leaf area) [5]
1 | CN1c2ccccc2C(c2cnc3c(F)cccc3c2)=NC(=O)C1(C)C [Ex-10] | up to 8% | ≤ 2% |  |  |  | 
2 | CC(=O)N1c2ccccc2C(c2cnc3c(F)cccc3c2)=NC(=O)C1(C)C [Ex-11] | up to 8% |  |  |  |  | 
3 | CN1CC2(CC2)N=C(c2cnc3c(F)cccc3c2)c2cccc(F)c21 [Ex-17] |  | ≤ 2% | up to 24% | up to 21% | up to 7% | up to 11%

Source: patent US20260182574A1 (priority 2022, published 2026)
